No constants are given. Whether binding was seen depends on the method and setting. Binding seen in cells or lysates may run through a third protein. Some results given as binding are weak or reduced against the parent protein; the word gives no strength. Tags and fused reporters may be left off the sequences shown.
Columns and labels:
MYC-tagged MK2 [1] = molecular target: MYC-tagged MK2 (UniProt P49137); assay: co-immunoprecipitation from 293T cells, IP anti-HA, blot anti-Myc (FIG. 10B)
MYC-tagged MK2 [2] = molecular target: MYC-tagged MK2 (UniProt P49137); assay: co-immunoprecipitation from 293T cells, IP anti-HA, blot anti-Myc

The chains behind the UniProt entries cited, without tags or fusion partners.
UniProt P49137: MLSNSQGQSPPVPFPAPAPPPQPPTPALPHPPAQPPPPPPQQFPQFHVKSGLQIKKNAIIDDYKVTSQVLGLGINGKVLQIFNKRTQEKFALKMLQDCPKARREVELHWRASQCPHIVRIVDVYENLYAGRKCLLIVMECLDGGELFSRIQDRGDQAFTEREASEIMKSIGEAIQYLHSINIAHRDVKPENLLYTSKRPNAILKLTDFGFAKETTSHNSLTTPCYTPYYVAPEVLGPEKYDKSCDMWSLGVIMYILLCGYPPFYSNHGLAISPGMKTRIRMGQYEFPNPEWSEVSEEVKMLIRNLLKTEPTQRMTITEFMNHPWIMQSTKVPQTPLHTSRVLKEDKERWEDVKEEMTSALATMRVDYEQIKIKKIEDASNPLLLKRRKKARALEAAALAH

- binding (MYC-tagged MK2 [1]): binds
- binding (MYC-tagged MK2 [2]): binds
B1: HA-tagged HPH2 (protein, not shown: small tags and cut ends)
chain: MCLRGGCSPRAPAAAPQPRPPPALPPRPRAPVPASRPGRPLLTPARPCGRMRRGSPGPRLGGSRGERRRPAGRDPARVGPGQGLRRPARPGPAAWTETGQGIVHALTDLSIPGMTSGNGNSASSIAGTAPQNGENKPPQAIVKPQILTHVIEGFVIQEGADVSRWDARLLVGNLKKKYAQGFLPEKLPQQDHTTTTDSEMEEPYLQESKEEGAPLKLKCELCGRVDFAYKFKRSKRFCSMACAKRYNVGCTKRVGLFHSDRSKLQKAGAATHNRRRPAKPVCHHLPRIPRSSQQALCPFRLLLLCVTHSQEDSSRCSDNSSYEEPLSPISASSSTSAGDKASGTWSSPTCICGTWWAWDTTSCQVSHQVNVEDVYEFIRSLPGCQEIAEEFRAQEIDGQALLLLKEDHLMSVMNIKLGPALKIYARISMLKDS

From US20060094101A1
